This test has as its target phyB-GFP (Arabidopsis thaliana) (UniProt P14713). Nature of the test: fluorescence-activated particle sorting of phyB-GFP photobodies with LC-MS/MS; photobodies sorted by green fluorescence (Alexa Fluor 488 anti-GFP antibody) from sonicated nuclei of PHYB-GFP leaves; proteins enriched over the pre-sorted nuclear extract by more than 2σ.

Sequences of proteins named here, by UniProt entry; tags and fusion partners are left off. Residues count along the entry.
UniProt P14713: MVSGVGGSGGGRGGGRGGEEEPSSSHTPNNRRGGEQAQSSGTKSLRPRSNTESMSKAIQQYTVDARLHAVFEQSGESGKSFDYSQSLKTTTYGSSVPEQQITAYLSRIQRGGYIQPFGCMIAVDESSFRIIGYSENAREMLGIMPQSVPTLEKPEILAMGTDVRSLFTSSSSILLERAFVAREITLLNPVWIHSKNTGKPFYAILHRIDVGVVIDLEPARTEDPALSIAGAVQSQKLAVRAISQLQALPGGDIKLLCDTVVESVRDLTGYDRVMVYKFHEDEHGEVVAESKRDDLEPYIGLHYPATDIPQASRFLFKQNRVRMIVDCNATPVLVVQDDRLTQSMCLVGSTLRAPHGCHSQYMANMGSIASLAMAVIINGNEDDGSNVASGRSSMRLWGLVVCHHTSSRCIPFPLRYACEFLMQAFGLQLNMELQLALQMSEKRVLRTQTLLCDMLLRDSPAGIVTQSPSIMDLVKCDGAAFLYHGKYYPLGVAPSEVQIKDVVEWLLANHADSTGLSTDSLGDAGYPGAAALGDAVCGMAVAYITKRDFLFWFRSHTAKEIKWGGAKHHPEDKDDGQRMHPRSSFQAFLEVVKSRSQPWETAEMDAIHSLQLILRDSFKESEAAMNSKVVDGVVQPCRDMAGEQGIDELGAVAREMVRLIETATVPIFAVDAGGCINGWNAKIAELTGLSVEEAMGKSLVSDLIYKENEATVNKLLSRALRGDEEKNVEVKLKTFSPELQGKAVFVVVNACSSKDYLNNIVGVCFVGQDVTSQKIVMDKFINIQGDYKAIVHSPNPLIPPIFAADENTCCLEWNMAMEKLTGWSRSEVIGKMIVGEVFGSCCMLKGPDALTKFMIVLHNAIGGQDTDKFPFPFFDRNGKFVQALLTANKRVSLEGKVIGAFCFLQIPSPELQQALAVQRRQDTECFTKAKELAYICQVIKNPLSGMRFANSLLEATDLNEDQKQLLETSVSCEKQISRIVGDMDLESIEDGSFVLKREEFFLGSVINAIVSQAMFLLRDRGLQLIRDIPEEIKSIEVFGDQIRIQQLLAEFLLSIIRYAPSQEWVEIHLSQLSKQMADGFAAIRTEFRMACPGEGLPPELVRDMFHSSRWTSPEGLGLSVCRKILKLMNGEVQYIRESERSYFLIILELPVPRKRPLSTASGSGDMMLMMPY
UniProt Q5E924, residues 67-420: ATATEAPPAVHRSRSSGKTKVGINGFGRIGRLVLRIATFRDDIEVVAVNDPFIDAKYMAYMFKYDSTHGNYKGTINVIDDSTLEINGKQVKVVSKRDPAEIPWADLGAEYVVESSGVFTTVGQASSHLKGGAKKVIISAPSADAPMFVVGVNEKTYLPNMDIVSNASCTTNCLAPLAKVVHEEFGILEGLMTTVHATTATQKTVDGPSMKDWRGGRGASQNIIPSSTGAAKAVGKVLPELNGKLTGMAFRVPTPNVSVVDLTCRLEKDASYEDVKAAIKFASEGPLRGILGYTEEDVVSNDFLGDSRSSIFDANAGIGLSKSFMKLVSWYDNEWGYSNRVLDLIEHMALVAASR

Results are given in words; binding and its absence hold for the method and conditions named.

Turning to “GAPCP2 (from UniProt Q5E924 67-420) (enzyme)”, the binding entry is on record as “no binding”.

The values are drawn from article PMC10042835.
